Reference: article PMC8065851
No constants are given. Whether binding was seen depends on the method and setting. Binding seen in cells or lysates may run through a third protein. Some binding calls cover weakened binding; strength is not graded here. Tags and fused reporters may be left off the sequences shown.

T1: Csi1 (S. cerevisiae orthologue of CSN6), fused to a fragment of cytosine deaminase (FCY1) (S. cerevisiae) (UniProt Q04368)
T1 sequence: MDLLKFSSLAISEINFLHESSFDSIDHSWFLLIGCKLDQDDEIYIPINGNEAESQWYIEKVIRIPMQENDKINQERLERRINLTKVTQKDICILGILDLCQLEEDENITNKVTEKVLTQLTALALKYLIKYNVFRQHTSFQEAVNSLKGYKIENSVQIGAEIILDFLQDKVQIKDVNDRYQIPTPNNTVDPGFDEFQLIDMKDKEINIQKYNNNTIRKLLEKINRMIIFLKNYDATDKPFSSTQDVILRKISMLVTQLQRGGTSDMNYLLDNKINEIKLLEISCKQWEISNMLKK

T2: Csn10/CSN2, chromosomally integrated, TAP-tagged at the C-terminal (S. cerevisiae) (UniProt Q12348)
T2 sequence: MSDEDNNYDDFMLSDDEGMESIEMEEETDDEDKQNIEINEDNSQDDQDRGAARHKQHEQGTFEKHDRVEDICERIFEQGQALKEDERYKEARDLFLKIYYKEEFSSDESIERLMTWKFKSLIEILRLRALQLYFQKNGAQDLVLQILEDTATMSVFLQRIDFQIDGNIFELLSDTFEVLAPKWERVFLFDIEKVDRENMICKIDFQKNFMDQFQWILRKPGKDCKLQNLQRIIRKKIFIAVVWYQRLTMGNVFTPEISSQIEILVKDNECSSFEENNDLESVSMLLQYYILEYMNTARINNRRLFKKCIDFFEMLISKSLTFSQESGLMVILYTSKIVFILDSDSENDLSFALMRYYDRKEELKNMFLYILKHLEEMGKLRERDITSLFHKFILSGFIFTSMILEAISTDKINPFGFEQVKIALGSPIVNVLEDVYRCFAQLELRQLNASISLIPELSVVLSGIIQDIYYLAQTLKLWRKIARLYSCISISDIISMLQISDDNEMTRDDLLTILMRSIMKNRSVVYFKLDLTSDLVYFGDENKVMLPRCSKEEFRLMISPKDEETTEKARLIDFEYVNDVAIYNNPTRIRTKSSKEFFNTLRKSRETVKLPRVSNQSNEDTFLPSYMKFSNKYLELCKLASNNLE


Key:
[1] = biological target: T1, Csi1 (S. cerevisiae orthologue of CSN6), fused to a fragment of cytosine deaminase (FCY1) (S. cerevisiae); assay: split reporter; protein-fragment complementation assay (PCA) in S. cerevisiae: fragments of cytosine deaminase (FCY1), each attached to a different protein; survival read-out by deamination of cytosine to uracil
[2] = biological target: T2, Csn10/CSN2, chromosomally integrated, TAP-tagged at the C-terminal (S. cerevisiae); assay: pull-down; calmodulin-based affinity pulldown of chromosomally integrated Csn10-TAP from native extracts of wildtype and Δcsn5 mutant cells; immunoblotting with Rpn5 and Myc antibodies

Row | binding [2] | Binder | binding [1]
1 |  | Csn5 (S. cerevisiae CSN5/Jab1), fused to a fragment of cytosine deaminase (FCY1) (protein, UniProt Q12468 1-440) MSLSNKTVKELRQLLKERYTVEDELTESIALSSMRFKPSQEPEFHALSQSSLLKTKLKQQSSTDIPSYTHVLISKLSCEKITHYAVRGGNIEIMGILMGFTLKDNIVVMDCFNLPVVGTETRVNAQLESYEYMVQYIDEMYNHNDGGDGRDYKGAKLNVVGWFHSHPGYDCWLSNIDIQTQDLNQRFQDPYVAIVVDPLKSLEDKILRMGAFRTIESKSDDNSATSYYELETIIFDSELNRALFETKLNLHCVIEDDESEQISLNRLIDSMKQYSYLMDSKNVRTRIKLATTSERVSNENKKNIDYQNRSTRSQFCLNTQRGDSTETSSFGSMFSGDNTSDVDMEDRNLTEFDSTDTSLCINGEPSIHVNRVERSSRSTDNFHNSKKRMNSNQERCHDEGNDMLQRNVLETDYARAKNRILASKIKQYERLRFYKDTFTL | binds
2 |  | Rpn5 (S. cerevisiae 19S lid subunit that replaces CSN4), fused to a fragment of cytosine deaminase (FCY1) (protein, UniProt Q12250 1-445) MSRDAPIKADKDYSQILKEEFPKIDSLAQNDCNSALDQLLVLEKKTRQASDLASSKEVLAKIVDLLASRNKWDDLNEQLTLLSKKHGQLKLSIQYMIQKVMEYLKSSKSLDLNTRISVIETIRVVTENKIFVEVERARVTKDLVEIKKEEGKIDEAADILCELQVETYGSMEMSEKIQFILEQMELSILKGDYSQATVLSRKILKKTFKNPKYESLKLEYYNLLVKISLHKREYLEVAQYLQEIYQTDAIKSDEAKWKPVLSHIVYFLVLSPYGNLQNDLIHKIQNDNNLKKLESQESLVKLFTTNELMRWPIVQKTYEPVLNEDDLAFGGEANKHHWEDLQKRVIEHNLRVISEYYSRITLLRLNELLDLTESQTETYISDLVNQGIIYAKVNRPAKIVNFEKPKNSSQLLNEWSHNVDELLEHIETIGHLITKEEIMHGLQAK | binds
3 | binds | Rpn5/CSN4, endogenous (protein, UniProt Q12250 1-445) MSRDAPIKADKDYSQILKEEFPKIDSLAQNDCNSALDQLLVLEKKTRQASDLASSKEVLAKIVDLLASRNKWDDLNEQLTLLSKKHGQLKLSIQYMIQKVMEYLKSSKSLDLNTRISVIETIRVVTENKIFVEVERARVTKDLVEIKKEEGKIDEAADILCELQVETYGSMEMSEKIQFILEQMELSILKGDYSQATVLSRKILKKTFKNPKYESLKLEYYNLLVKISLHKREYLEVAQYLQEIYQTDAIKSDEAKWKPVLSHIVYFLVLSPYGNLQNDLIHKIQNDNNLKKLESQESLVKLFTTNELMRWPIVQKTYEPVLNEDDLAFGGEANKHHWEDLQKRVIEHNLRVISEYYSRITLLRLNELLDLTESQTETYISDLVNQGIIYAKVNRPAKIVNFEKPKNSSQLLNEWSHNVDELLEHIETIGHLITKEEIMHGLQAK | 
4 |  | Csn9 (S. cerevisiae orthologue of CSN7), fused to a fragment of cytosine deaminase (FCY1) (protein, UniProt Q03981 1-162) MVMREETIKSLEDPYKYHYKEEWLNTKDPDEQQLFEIFAFGNIKDLPENIILTSLMRSKLEKLTLVTLSEIYNELSYELIKEECQIEDDGIIESHLIQLQNIFKAEMDSVSKSMKFSRRFDCRDVYCHEKELTIIKNPRVTKEYLVQNLRSWETKLKQNILE | binds
5 | binds | Csn9-13Myc (protein, UniProt Q03981 1-162) MVMREETIKSLEDPYKYHYKEEWLNTKDPDEQQLFEIFAFGNIKDLPENIILTSLMRSKLEKLTLVTLSEIYNELSYELIKEECQIEDDGIIESHLIQLQNIFKAEMDSVSKSMKFSRRFDCRDVYCHEKELTIIKNPRVTKEYLVQNLRSWETKLKQNILE | 
